Results on 25 compounds are retold here after PubChem BioAssay AID248 (DTP/NCI, 2004).

The experiment has as its system L1210 leukemia ip in BDF1 mice, survival T/C. In words: NCI In Vivo Anticancer Drug Screen. Data for tumor model L1210 Leukemia (intraperitoneal) in B6D2F1 (BDF1) mice. The settings on record: T/C endpoint: mean survival time, higher T/C = longer survival.
Setting [1] is: dose: 80.0 mg/kg/injection, schedule: Q01DX001 (ip), vehicle: saline.
Where [2] appears, read: dose: 200.0 mg/kg/injection, schedule: Q01DX001 (ip), vehicle: saline.
The mark [3] stands for this setting: dose: 400.0 mg/kg/injection, schedule: Q01DX001 (ip), vehicle: saline.
Setting [4] is: dose: 40.0 mg/kg/injection, schedule: Q01DX001 (ip), vehicle: saline.
[5] abbreviates: dose: 300.0 mg/kg/injection, schedule: Q01DX001 (ip), vehicle: saline.
Where [6] appears, read: dose: 200.0 mg/kg/injection, schedule: Q04DX002 (ip), vehicle: saline with Tween-80.
Where [7] appears, read: dose: 400.0 mg/kg/injection, schedule: Q04DX002 (ip), vehicle: saline with Tween-80.
Setting [8] is: dose: 100.0 mg/kg/injection, schedule: Q04DX003 (ip), vehicle: saline.
The mark [9] stands for this setting: dose: 200.0 mg/kg/injection, schedule: Q04DX003 (ip), vehicle: saline.
[10] abbreviates: dose: 400.0 mg/kg/injection, schedule: Q04DX003 (ip), vehicle: saline.
Setting [11] is: dose: 400.0 mg/kg/injection, schedule: Q04DX003 (ip), vehicle: Klucel (hydroxypropylcellulose) (HPC).
Where [12] appears, read: dose: 100.0 mg/kg/injection, schedule: Q04DX003 (ip), vehicle: Klucel (hydroxypropylcellulose) (HPC).
[13] abbreviates: dose: 200.0 mg/kg/injection, schedule: Q04DX003 (ip), vehicle: Klucel (hydroxypropylcellulose) (HPC).

The list does not hold the whole screen: it is rich in T/C values a quarter to a half above the control, in often repeated tests (any T/C) and in doses without a T/C. Further doses and runs are listed elsewhere. T/C gives the treated animals as a percentage of the vehicle group. Some entries give survivors of the animals treated and no T/C: the source holds a T/C of zero for them, seemingly a mark for toxic or unscored doses. Some survivor counts are full or nearly so, which does not show that the dose was tolerated: survival well below the control is almost never listed, so the zero probably covers shortened survival too. Survivors were counted at the toxicity check, usually on the fifth day, unless a day is given; later deaths do not show. Schedule codes are those of the source, taken here to give the interval after Q, in days (D) or hours (H), and the number of doses after X. Some entries hold several experiments; the values are given in rising order. Some schedule codes hold Z or #, which are not explained here. Where survival is the endpoint, the PubChem record calls one and a half times the control and up active, and a quarter to a half above the control has no call in these data; cut-offs in other NCI protocols can differ.

In the case of `CC1OC2CC(=O)OC2C2=C1C(=O)c1c(O)c3c(c(O)c1C2=O)C1CC(O)C3(O)C(C)O1` (stereo not given), the survivor count reads like this: (dose: 3.2 mg/kg/injection, schedule: Q01DX Z (ip), vehicle: saline) 6 of 6; (dose: 24.0 mg/kg/injection, schedule: Q01DX Z (ip), vehicle: saline) 2 of 6; (dose: 48.0 mg/kg/injection, schedule: Q01DX Z (ip), vehicle: saline) 0 of 6; under setting [1], 0 of 6; (dose: 96.0 mg/kg/injection, schedule: Q01DX Z (ip), vehicle: saline) 0 of 6.

For `CN(C)CCCN1CCC2(CC[Si](C)(C)CC2)C1`, the survivor count is, setting by setting: under setting [2], 4 of 4; under setting [3], 0 of 4.

As to `COC12CC3C4=CCOC5CC(=O)N6c7ccccc7C1(CCN2C4)C6C53` (stereo not given), the survivor count under setting [4] was 0 of 6; the survivor count (dose: 75.0 mg/kg/injection, schedule: Q01DX001 (ip), vehicle: saline) was 0 of 6; the survivor count under setting [1] is reported as 0 of 6; the survivor count (dose: 150.0 mg/kg/injection, schedule: Q01DX001 (ip), vehicle: saline) is given as 0 of 6; the survivor count under setting [5] was 0 of 6.

With `COc1ccc(C(SCC(N)C(=O)O)(c2ccccc2)c2ccccc2)cc1` (stereo not given), the T/C (dose: 11.0 mg/kg/injection, schedule: Q01DX009 (ip), vehicle: saline) was 134 % of control. Further, the survivor count was 4 of 6 (dose: 40.0 mg/kg/injection, schedule: Q01DX009 (ip), vehicle: saline); 4 of 6 (dose: 75.0 mg/kg/injection, schedule: Q01DX009 (ip), vehicle: saline); 0 of 6 (dose: 150.0 mg/kg/injection, schedule: Q01DX009 (ip), vehicle: saline); 6 of 6 (dose: 200.0 mg/kg/injection, schedule: Q01DX009 (ip), vehicle: saline); 0 of 6 and 5 of 6 (dose: 300.0 mg/kg/injection, schedule: Q01DX009 (ip), vehicle: saline); 4 of 6 (dose: 400.0 mg/kg/injection, schedule: Q01DX009 (ip), vehicle: saline).

As to `CCCCOP(=O)(c1ccccc1)N1CCCCC1` (stereo not given), the survivor count is 1 of 3 under setting [6] and 0 of 3 under setting [7].

For the compound `O=NN(C(=O)Nc1ccccc1)C1CCCCC1`, the survivor count (dose: 300.0 mg/kg/injection, schedule: Q01DX001 (ip), vehicle: carboxymethylcellulose (CMC)) is listed as 3 of 6.

Take `COc1cc2ccc3c(c2cc1OC)C=NCC3`: the survivor count was 3 of 6 (dose: 1.56 mg/kg/injection, schedule: Q01DX009 (ip), vehicle: saline); 0 of 6 (dose: 25.0 mg/kg/injection, schedule: Q04DX003 (ip), vehicle: saline); 0 of 6 (dose: 50.0 mg/kg/injection, schedule: Q04DX003 (ip), vehicle: saline); 3 of 6 under setting [8]; 0 of 6 under setting [9]; 0 of 6 under setting [10].

On to `O=c1c(Br)c[nH]cc1Br`, for which the survivor count is 0 of 6 (dose: 200.0 mg/kg/injection, schedule: Q01DX009 (ip), vehicle: Klucel (hydroxypropylcellulose) (HPC)) and 0 of 6 (dose: 400.0 mg/kg/injection, schedule: Q01DX009 (ip), vehicle: Klucel (hydroxypropylcellulose) (HPC)).

In the case of `CCn1c(C)[n+](CCCOS(=O)(=O)[O-])c2ccccc21`, under setting [10], the survivor count was 2 of 6.

For `CC(C)C(NC(=O)C(F)(F)F)C(=O)O` (stereo not given), the survivor count (dose: 350.0 mg/kg/injection, schedule: Q04DX003 (ip), vehicle: saline) was 0 of 6.

Turning to `CC#CC(=O)O`, the survivor count by setting is: (dose: 50.0 mg/kg/injection, schedule: Q01DX009 (ip), vehicle: saline) 3 of 3; (dose: 100.0 mg/kg/injection, schedule: Q01DX009 (ip), vehicle: saline) 2 of 3.

Regarding `CCCCCCCCCCOP(N)(=O)OCCCCCCCCCC`, the survivor count is recorded as 6 of 6 (dose: 200.0 mg/kg/injection, schedule: Q04DX003 (ip), vehicle: carboxymethylcellulose (CMC)) and 0 of 6 (dose: 340.0 mg/kg/injection, schedule: Q01DX009 (ip), vehicle: carboxymethylcellulose (CMC)).

For `CC(C)(C)c1ccc(P(=O)(O)C(C)(C)C)cc1`, the survivor count under setting [5] was 1 of 6.

Turning to `BrCc1cccc(C[P+](c2ccccc2)(c2ccccc2)c2ccccc2)c1`, the survivor count under setting [4] is given as 1 of 4; the survivor count under setting [1] is reported as 0 of 4; the survivor count (dose: 100.0 mg/kg/injection, schedule: Q01DX001 (ip), vehicle: saline) was 2 of 4; the survivor count under setting [2] is on record as 0 of 4; the survivor count under setting [3] was 0 of 4.

Consider `c1cc[n+](CCNCC[n+]2ccccc2)cc1`, for which, under setting [5], the survivor count was 0 of 6.

In the case of `CCN=C(c1ccc(NC(=O)c2ccc(C(=O)Nc3ccc(C(=NCC)N(CC)C(=O)Nc4ccc(OC)cc4)cc3)cc2)cc1)N(CC)C(=O)Nc1ccc(OC)cc1`, the T/C (dose: 9.0 mg/kg/injection, schedule: Q01DX015 (ip), vehicle: methylcellulose (MC)) is 134 % of control and the T/C (dose: 18.0 mg/kg/injection, schedule: Q01DX015 (ip), vehicle: methylcellulose (MC)) is 141 % of control. The survivor count (dose: 25.0 mg/kg/injection, schedule: Q01DX015 (ip), vehicle: methylcellulose (MC)) was 1 of 6; the survivor count (dose: 50.0 mg/kg/injection, schedule: Q01DX015 (ip), vehicle: methylcellulose (MC)) is given as 0 of 6; the survivor count (dose: 100.0 mg/kg/injection, schedule: Q01DX015 (ip), vehicle: methylcellulose (MC)) is listed as 0 of 6; the survivor count (dose: 200.0 mg/kg/injection, schedule: Q01DX015 (ip), vehicle: methylcellulose (MC)) is listed as 0 of 6; the survivor count (dose: 400.0 mg/kg/injection, schedule: Q01DX015 (ip), vehicle: methylcellulose (MC)) was 0 of 6.

In the case of `CC1OC(O[C@@H]2C=C3CC[C@@H]4[C@H](CC[C@]5(C)[C@@H](c6ccc(=O)oc6)CC[C@]45O)[C@@]3(C)CC2)C(O)C(O)C1O` (stereo not given in full), the survivor count (dose: 20.0 mg/kg/injection, schedule: Q01DX001 (ip), vehicle: saline) is 3 of 6 and the survivor count under setting [4] is 0 of 6.

Take `CN(C)CC1CCCCC1=O` (stereo not given): the survivor count (dose: 400.0 mg/kg/injection, schedule: Q01DX009 (ip), vehicle: saline with Tween-80) is reported as 1 of 6.

In the case of `Cc1ccc(S(=O)(=O)OCCOS(=O)(=O)c2ccc(C)cc2)cc1`, the survivor count under setting [11] is 6 of 6.

Consider `C=C/C=C/CCN1CC1`, for which the survivor count is listed as 0 of 6 under setting [12], 0 of 6 under setting [13] and 0 of 6 under setting [11].

`COc1ccc(CCC2=NCCN2)cc1OC`: the survivor count (dose: 400.0 mg/kg/injection, schedule: Q04DX003 (ip), vehicle: saline with Tween-80) is recorded as 2 of 6.

As to `O=[N+]([O-])c1ccc(-c2ccccc2)c([As](=O)(O)O)c1`, the survivor count runs as follows: (dose: 50.0 mg/kg/injection, schedule: Q04DX002 (ip), vehicle: saline with Tween-80) 1 of 3; (dose: 100.0 mg/kg/injection, schedule: Q04DX002 (ip), vehicle: saline with Tween-80) 0 of 3; under setting [6], 0 of 3; under setting [7], 0 of 3.

For the compound `COc1cc2c(cc1OC)C1=C(CC2)C2CCCN2CC1` (stereo not given), the survivor count was 0 of 6 and 1 of 6 under setting [8]; 0 of 6 under setting [9]; 0 of 6 under setting [10].

Regarding `NCCCN=C=NCc1ccccc1`, the survivor count by setting is: under setting [2], 0 of 6; under setting [3], 0 of 6.

Take `O=C1CCC(=O)N1c1ccc(Cl)cc1`: the survivor count runs as follows: under setting [12], 0 of 10; under setting [13], 0 of 10; under setting [11], 0 of 10.
